Test results as given in article PMC6933351.
No constants are given. Whether binding was seen depends on the method and setting. In cells and extracts the contact can be indirect. Some results given as binding are weak or reduced against the parent protein; the word gives no strength.

Target: T1, Endogenous SIRT1 (mouse (endogenous in MCFs)) (UniProt Q923E4)
T1 sequence: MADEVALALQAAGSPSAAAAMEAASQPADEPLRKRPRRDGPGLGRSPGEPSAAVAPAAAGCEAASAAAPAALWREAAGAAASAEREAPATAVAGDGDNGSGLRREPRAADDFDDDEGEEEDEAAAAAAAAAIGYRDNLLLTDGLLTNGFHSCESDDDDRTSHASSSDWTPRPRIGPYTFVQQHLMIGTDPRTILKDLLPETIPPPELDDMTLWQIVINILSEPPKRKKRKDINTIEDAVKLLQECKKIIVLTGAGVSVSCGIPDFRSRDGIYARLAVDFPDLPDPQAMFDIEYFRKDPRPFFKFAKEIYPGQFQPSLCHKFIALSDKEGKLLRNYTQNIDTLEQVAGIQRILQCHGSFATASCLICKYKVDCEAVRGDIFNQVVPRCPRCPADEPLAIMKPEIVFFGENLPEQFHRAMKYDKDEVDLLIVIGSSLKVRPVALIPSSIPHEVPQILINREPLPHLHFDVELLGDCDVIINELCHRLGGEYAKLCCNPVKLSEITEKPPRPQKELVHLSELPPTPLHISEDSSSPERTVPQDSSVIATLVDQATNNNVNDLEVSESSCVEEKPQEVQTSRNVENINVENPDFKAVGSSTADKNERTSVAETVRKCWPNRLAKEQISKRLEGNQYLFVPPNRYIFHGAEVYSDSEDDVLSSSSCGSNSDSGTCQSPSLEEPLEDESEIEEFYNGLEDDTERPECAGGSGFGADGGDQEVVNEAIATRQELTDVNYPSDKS
Test: co-IP; endogenous proteins in MCFs, precipitated with a SIRT1 antibody, blotted for TRPC3; with or without Hcy stimulation

binding: binds
B1: Endogenous TRPC3 (protein, UniProt Q9QZC1 1-910)
chain: MSTKVKKCREPARVTLPAPEEEEDGEAEGGESQRRRRGWRGVNGGLEPPCPRAPPSPGPDASSEGSPSRWRTAGMRDKGRRQAVRGPAFMFGARGPSLTAEEERFLDAAEYGNIPVVRKMLEESRTLNVNCVDYMGQNALQLAVGNEHLEVTELLLKKENLARIGDALLLAISKGYVRIVEAILGHPGFAASRRLTLSPCEQELRDDDFYAYDEDGTRFSPDITPIILAAHCHKYEVVHLLLLKGARIERPHDYFCRCSDCAEKQRLDAFSHSRSRINAYKGLASPAYLSLSSEDPVLTALELSNELAKLANIEKEFKNDYRKLSMQCKDFVVGVLDLCRDSEEVEAILNGDLESAEPLERHGHKASLSRVKLAIKYEVKKFVAHPNCQQQLLTIWYENLSGLREQTIAIKCLVVLVVALGLPFLAIGYWIAPCSRLGKILRSPFMKFVAHAASFIIFLGLLVFNASDRFEGITTLPNITVIDYPKQIFRVKTTQFTWTEMLIMVWVLGMMWSECKELWLEGPREYIVQLWNVLDFGMLSIFIAAFTARFLAFLQATKAQQYVDSHVQESDLSEVTLPPEVQYFTYARDKWLPSDPQIISEGLYAIAVVLSFSRIAYILPANESFGPLQISLGRTVKDIFKFMVLFIMVFLAFMIGMFILYSYYLGAKVNPAFTTVEESFKTLFWSIFGLSEVTSVVLKYDHKFIENIGYVLYGIYNVTMVVVLLNMLIAMINSSYQEIEDDSDVEWKFARSKLWLSYFDDGKTLPPPFSLVPSPKSFVYFIMRITNFSKCRRRRLQKDLELGMGNSKSRLNLFTQSNSRVFESHSFNSILNQPTRYQQIMKRLIKRYVLKAQVDKENDEVNEGELKEIKQDISSLRYELLEDKSQATEELAILIHKLSEKLNPSVLRCE
